These are yes or no findings as the source states them, for the method shown. Some binding calls cover weakened binding; strength is not graded here.

For the assay, the target named is T1, mSin3A-PAH2 domain (UniProt Q60520 300-383, biotin).
T1 construct: domain: PAH2; 0.1 µg immobilised on streptavidin biosensor tips; also called Biotin-mSin3A-PAH2; PAH2 domain of the mSin3A transcriptional repressor
T1 sequence (looked up): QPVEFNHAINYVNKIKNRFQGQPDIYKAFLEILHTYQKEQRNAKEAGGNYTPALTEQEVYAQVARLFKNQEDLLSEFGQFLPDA
Nature of the assay: bio-layer interferometry, Biotin-mSin3A-PAH2 on streptavidin tips, 50 nM cage with 500 nM Keya. On the technique in general: Biolayer interferometry detects binding as a change in optical thickness at a sensor tip.

B1: 1fix_309_Mad1 (designed binder)
chain: MGSHHHHHHGSGSENLYFQGSKEAAKKLQDLNIELARKLLEASTKLQRLNIRLAEALLEAIARLQELNLELVYLAVELTDPKRIRDEIKEVKDKSKEIIRRAEKEIDDAAKESKKILEEARKAIRDAAEESRKILEEGSGSGSDALDELQKLNLELAKLLLKAIAETQDLNLRAAKAFLEAAAKLQELNIRAVELLVKLTDPATIRRALEHAKRRSKEIIDEAERAIRAAKRESERIIEEARRLIEKAKEESERIIREGSGSGDPDIKKLQDLNIELARELLRAHAQLQRLNLELLRELLRALAQLQELNLDLLRLASELTDPDEARKNIQMLLEAADYLEEDAERLIREAAAASEKISREAERLIREAASEKISRE
Consider B1, for which the binding result was “binds”.

The values are drawn from US20220073565A1 (University of Washington, published 2022).
